Test results reported in PMC8450433.
No constants are given. Whether binding was seen depends on the method and setting. Binding seen in cells or lysates may run through a third protein. Some results given as binding are weak or reduced against the parent protein; the word gives no strength.

By UniProt entry, the sequences of proteins in these tests, tags left out. Residues count along the entry.
UniProt P05067, residues 672-713: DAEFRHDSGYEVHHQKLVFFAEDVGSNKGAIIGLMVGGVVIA

Biological target: β-amyloid peptide (Aβ42) (UniProt P05067)
Test: co-IP; APP/PS1 mouse brain lysate (6-month-old mice, 4 mg protein, pre-cleared with protein G); IP with the anti-Aβ antibody MOAB2 (1:200) and protein G beads overnight at 4°C; western blot for MOAB2 (Aβ42) and Gpc4

B1: glypican 4 (protein, UniProt P51655 19-529)
chain: SLLAAELKSKSCSEVRRLYVSKGFNKNDAPLYEINGDHLKICPQDYTCCSQEMEEKYSLQSKDDFKTVVSEQCNHLQAIFASRYKKFDEFFKELLENAEKSLNDMFVKTYGHLYMQNSELFKDLFVELKRYYVAGNVNLEEMLNDFWARLLERMFRLVNSQYHFTDEYLECVSKYTEQLKPFGDVPRKLKLQVTRAFVAARTFAQGLAVARDVVSKVSVVNPTAQCTHALLKMIYCSHCRGLVTVKPCYNYCSNIMRGCLANQGDLDFEWNNFIDAMLMVAERLEGPFNIESVMDPIDVKISDAIMNMQDNSVQVSQKVFQGCGPPKPLPAGRISRSISESAFSARFRPYHPEQRPTTAAGTSLDRLVTDVKEKLKQAKKFWSSLPSTVCNDERMAAGNENEDDCWNGKGKSRYLFAVTGNGLANQGNNPEVQVDTSKPDILILRQIMALRVMTSKMKNAYNGNDVDFFDISDESSGEGSGSGCEYQQCPSEFEYNATDHSGKSANEKADS
In the case of B1, the binding is reported as “binds”.
